# Where a sequence shows no end group, the ends are not given.
# Experiment: general procedure: Fmoc solid-phase peptide synthesis; Fmoc-Thr(tBu)-Wang resin (Novabiochem); DCC/HOBT (1:1)
# Conditions: whole synthesis, LC/MS on Waters Acquity HPLC-LCT Premier, scale of the general procedure 0.12 mmol equiv scale of the general procedure, several disulfide bridges, sequence written open
sequence,measurement,value
DTHFPICIFCCGCCHRSKCGMCCKT,final LC-MS purity,>95%

# Reference: patent US20130018176A1 (AMGEN INC., priority 2007, published 2013)
